Experimental data: paper doi:10.1101/718940
Results are given in words; binding and its absence hold for the method and conditions named. In cells and extracts the contact can be indirect. Some binding calls cover weakened binding; strength is not graded here.

Protein sequences, listed by entry. Tags and fused reporters are not part of them.
UniProt Q8NDF8: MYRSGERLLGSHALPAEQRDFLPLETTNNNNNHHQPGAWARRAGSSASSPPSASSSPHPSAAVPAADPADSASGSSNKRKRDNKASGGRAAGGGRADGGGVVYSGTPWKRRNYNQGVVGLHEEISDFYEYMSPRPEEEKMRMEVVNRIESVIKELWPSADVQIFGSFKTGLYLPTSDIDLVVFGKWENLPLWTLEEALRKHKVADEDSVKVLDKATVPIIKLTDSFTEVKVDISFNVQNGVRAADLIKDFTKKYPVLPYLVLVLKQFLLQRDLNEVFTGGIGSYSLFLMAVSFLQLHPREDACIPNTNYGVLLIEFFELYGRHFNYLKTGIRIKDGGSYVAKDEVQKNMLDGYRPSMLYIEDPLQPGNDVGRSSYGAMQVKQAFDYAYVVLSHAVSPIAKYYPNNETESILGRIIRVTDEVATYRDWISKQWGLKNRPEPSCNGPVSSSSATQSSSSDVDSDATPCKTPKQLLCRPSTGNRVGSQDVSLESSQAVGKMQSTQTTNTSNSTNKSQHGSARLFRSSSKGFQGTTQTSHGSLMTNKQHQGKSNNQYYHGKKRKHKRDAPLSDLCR

Biological target: terminal nucleotidyltransferase protein 4B (TENT4B) (human (endogenous in HepG2-HBV)) (UniProt Q8NDF8)
Assay: co-IP

B1: zinc finger CCHC-type containing 14 (ZCCHC14) (protein, UniProt Q8WYQ9 1-949)
chain: MASNHPAFSFHQKQVLRQELTQIQSSLNGGGGHGGKGAPGPGGALPTCPACHKITPRTEAPVSSVSNSLENALHTSAHSTEESLPKRPLGKHSKVSVEKIDLKGLSHTKNDRNVECSFEVLWSDSSITSVTKSSSEVTEFISKLCQLYPEENLEKLIPCLAGPDAFYVERNHVDLDSGLRYLASLPSHVLKNDHVRRFLSTSSPPQQLQSPSPGNPSLSKVGTVMGVSGRPVCGVAGIPSSQSGAQHHGQHPAGSAAPLPHCSHAGSAGSALAYRTQMDTSPAILMPSSLQTPQTQEQNGILDWLRKLRLHKYYPVFKQLSMEKFLSLTEEDLNKFESLTMGAKKKLKTQLELEKEKSERRCLNPSAPPLVTSSGVARVPPTSHVGPVQSGRGSHAAELRVEVEQPHHQLPREGSSSEYSSSSSSPMGVQAREESSDSAEENDRRVEIHLESSDKEKPVMLLNHFTSSSARPTAQVLPVQNEASSNPSGHHPLPPQMLSAASHITPIRMLNSVHKPERGSADMKLLSSSVHSLLSLEERNKGSGPRSSMKVDKSFGSAMMDVLPASAPHQPVQVLSGLSESSSMSPTVSFGPRTKVVHASTLDRVLKTAQQPALVVETSTAATGTPSTVLHAARPPIKLLLSSSVPADSAISGQTSCPNNVQISVPPAIINPRTALYTANTKVAFSAMSSMPVGPLQGGFCANSNTASPSSHPSTSFANMATLPSCPAPSSSPALSSVPESSFYSSSGGGGSTGNIPASNPNHHHHHHHQQPPAPPQPAPPPPGCIVCTSCGCSGSCGSSGLTVSYANYFQHPFSGPSVFTFPFLPFSPMCSSGYVSAQQYGGGSTFPVVHAPYSSSGTPDPVLSGQSTFAVPPMQNFMAGTAGVYQTQGLVGSSNGSSHKKSGNLSCYNCGATGHRAQDCKQPSMDFNRPGTFRLKYAPPAESLDSTD
binding: binds
